According to the supplement of paper PMC7877785:
± gives the uncertainty stated by the source. The uncertainty is large for many entries.

Assay: self-splicing fitness, log relative to wild type (ln ratio); higher = more splicing; Tetrahymena group I intron in knt gene, E. coli kanamycin selection, DiMSum; sequences stand for … in CUCUCU…GGAGGGAAAAGUUAUCAGGCAUGCACCUGGUAGCUAGUCUUUAAACCAAUAGAUUGCAUCGGUUUAAAAGGCAAGACCGUCAAAUUGCGGGAAAGGGGUCAACAGCCGUUCAGUACCAAGUCUCAGGGGAAACUUUGAGAUGGCCUUGCAAAGGGUAUGGUAAUAAGCUGACGGACAUGGUCCUAACCACGCAGCCAAGUCCUAAGUCAACAGAUCUUCUGUUGAUAUGGAUGCAGUUCACAGACUAAAUGUCGGUCGGGGAAGAUGUAUUCUUCUCAUAAGAUAUAGUCGGACCUCUCCUUAAUGGGAGCUAGCGGAUGAAGUGAUGCAACACUGGAGCCGCUGGGAACUAAUUUGUAUGCGAAAGUAUAUUGAUUAGUUUUGGAGUACUCGUGGUCG
How it was run: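 Fitness was computed with DiMSum as the error-weighted combination of replicate fold changes, kanamycin versus none, each normalised to wild type. The library randomised all eight intron nucleotides of the P1ex region, with the intron placed in the knt kanamycin-resistance gene on pET-22b(+) in E. coli BL21(DE3). Six replicate transformations were grown overnight at 37°C or 30°C on LB agar with or without 25 μg/mL kanamycin, plus 100 μg/mL carbenicillin, 50 μM IPTG and 0.2% rhamnose. Pooled colonies were amplicon-sequenced on an Illumina HiSeq 2500.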

Sequence	self-splicing fitness (ln) (30 °C)	self-splicing fitness (ln) (37 °C)
CUAAAGCAAUAUUACGCAAU	-3.94 ± 0.21	-2.97 ± 0.24
CUUGAGCAAUAUUACGCAAG	-2.37 ± 0.42	-3.89 ± 0.51
CGUCAGCAAUAUUACGAGUC	-4.14 ± 0.59	
UCGGAGCAAUAUUACGAUCA	-2.61 ± 0.53	
GGCUAGCAAUAUUACGCCUU	-4.29 ± 1.1	
GAGCAGCAAUAUUACGUCUC	-2.48 ± 0.15	-2.23 ± 0.22
GAUGAGCAAUAUUACGCUAC		-2.03 ± 0.56
GUAUAGCAAUAUUACGCUAC	-1.24 ± 0.69	-1.87 ± 0.6
AUCGAGCAAUAUUACGCGAU		-1.37 ± 0.71
UUGAAGCAAUAUUACGAUAA	-0.132 ± 0.23	0.686 ± 0.36
GUUUAGCAAUAUUACGCAGA	-2.86 ± 0.78	-4.28 ± 0.6
GGGGAGCAAUAUUACGGAGU		-1.38 ± 0.87
AGUCAGCAAUAUUACGGCGC	-0.611 ± 0.13	-0.0744 ± 0.18
UGUUAGCAAUAUUACGCGGC	-5 ± 0.58	
AGCCAGCAAUAUUACGCGUG	-1.91 ± 0.089	-1.35 ± 0.092
UGGUAGCAAUAUUACGGGCC		-2.94 ± 0.75
CGUAAGCAAUAUUACGUAUU	-4.21 ± 0.52	
UAUGAGCAAUAUUACGUAUC	-3.96 ± 0.73	-1.29 ± 0.71
AAGAAGCAAUAUUACGCCAC	-3.5 ± 0.52	
CUUUAGCAAUAUUACGAGAU	-3.83 ± 0.23	-2.57 ± 0.22
UUAGAGCAAUAUUACGCGUC		-3.1 ± 0.61
UUUUAGCAAUAUUACGAGGC	-1.43 ± 0.56	
AGCGAGCAAUAUUACGCAAU	-3.03 ± 0.75	-2.3 ± 0.77
CCGUAGCAAUAUUACGUCCC		-0.693 ± 1.4

Sequence	self-splicing fitness (ln) (30 °C)	self-splicing fitness (ln) (37 °C)
CUUGAGCAAUAUUACGCCUC	-1.86 ± 0.64	
UAAAAGCAAUAUUACGCGGA	-1.8 ± 0.08	-0.32 ± 0.082
UGCGAGCAAUAUUACGCAAG		-2.11 ± 0.51
UCGGAGCAAUAUUACGCCGA		-4.47 ± 0.72
AUCCAGCAAUAUUACGUAGG	-2.91 ± 0.14	-1.49 ± 0.12
ACUGAGCAAUAUUACGGAGA	-3.46 ± 0.21	-3.08 ± 0.27
CUCGAGCAAUAUUACGUCGU	-1.77 ± 0.26	-1.88 ± 0.37
CACCAGCAAUAUUACGUUAA	-3.35 ± 0.095	-2.37 ± 0.11
UCUUAGCAAUAUUACGCAAC	-3.39 ± 1	
CUGUAGCAAUAUUACGCGCC	-3.01 ± 0.84	
GGUUAGCAAUAUUACGUCCC	-3.06 ± 1.1	
CUACAGCAAUAUUACGCCAC		-2.47 ± 1.1
UCGGAGCAAUAUUACGUGAA	-3.41 ± 0.39	-1.63 ± 0.14
AAUUAGCAAUAUUACGGGGC		-3.46 ± 0.59
UCUUAGCAAUAUUACGGCCA		-2.51 ± 0.77
AUAGAGCAAUAUUACGUCCC		-2.83 ± 0.61
AGUCAGCAAUAUUACGCGGG	-2.8 ± 0.16	-1.06 ± 0.2
ACGUAGCAAUAUUACGUGGA	-3.46 ± 0.32	-2.2 ± 0.23
GGGUAGCAAUAUUACGCUCU		-1.61 ± 0.59
UUGCAGCAAUAUUACGGCGG	-1.7 ± 0.081	-1.01 ± 0.11
AAGGAGCAAUAUUACGAAUG		-3.08 ± 0.53
UUGGAGCAAUAUUACGUGGG		-2.48 ± 0.62
UCAGAGCAAUAUUACGGCAC	-4.65 ± 1	
AGGUAGCAAUAUUACGGAAC	-3.629 ± 0.035	-2.2 ± 0.042

Sequence	self-splicing fitness (ln) (30 °C)	self-splicing fitness (ln) (37 °C)
GCGGAGCAAUAUUACGAAGA	-1.93 ± 1.2	-1.93 ± 0.58
GUUGAGCAAUAUUACGCGAC		-2.64 ± 1.1
UAUUAGCAAUAUUACGCGAU	-4.76 ± 0.51	
AUGGAGCAAUAUUACGCCAC		-0.964 ± 0.78
CUUUAGCAAUAUUACGGAUU	-3.83 ± 0.62	
UUGUAGCAAUAUUACGAGGG	-4.36 ± 0.59	
GAGUAGCAAUAUUACGCAGC	-4.63 ± 0.58	
CCGAAGCAAUAUUACGCAUC		-4.16 ± 0.72
CGUUAGCAAUAUUACGCCGA		-1.29 ± 1.2
UAGAAGCAAUAUUACGAAAC	-3.99 ± 0.52	-2.39 ± 0.55
UAGCAGCAAUAUUACGAAAC	-2.06 ± 0.66	
CUGCAGCAAUAUUACGGCCC		-1.55 ± 0.6
UUUGAGCAAUAUUACGGGGU	-3.42 ± 0.54	
AUUGAGCAAUAUUACGAGCA	-3.01 ± 0.47	-1.93 ± 0.42
CUGGAGCAAUAUUACGGCAU		-1.73 ± 0.59
UUCUAGCAAUAUUACGAGCC	-3.14 ± 0.61	-2.28 ± 0.56
CGCGAGCAAUAUUACGAGGC	-4.16 ± 1	-2.47 ± 0.55
UGCGAGCAAUAUUACGGACU	-2.82 ± 0.6	
CUAGAGCAAUAUUACGCUCA	-3.82 ± 1	-1.39 ± 0.62
GGGGAGCAAUAUUACGUAGU	-4.52 ± 1	
AGCAAGCAAUAUUACGCUCG		-2.01 ± 0.84
CUUGAGCAAUAUUACGCGAU	0.0882 ± 0.84	
CGGAAGCAAUAUUACGCGCU	-3.7 ± 1	-1.58 ± 0.56
UAGCAGCAAUAUUACGGGUC	-5.23 ± 0.72	

Sequence	self-splicing fitness (ln) (30 °C)	self-splicing fitness (ln) (37 °C)
AGAAAGCAAUAUUACGGACA	-0.632 ± 0.2	-0.869 ± 0.29
UAGUAGCAAUAUUACGUCAG	-3.46 ± 0.74	
UGGGAGCAAUAUUACGAAUU	-3.82 ± 0.72	
ACACAGCAAUAUUACGCAGA	-2.48 ± 0.16	-1.75 ± 0.12
UGAUAGCAAUAUUACGGUAU	-3.75 ± 0.22	-1.92 ± 0.18
CAGAAGCAAUAUUACGCUCC		0.0166 ± 0.64
UAAUAGCAAUAUUACGAUAC		-2.7 ± 0.53
AGCCAGCAAUAUUACGUUUA	-2.7 ± 0.35	-2.48 ± 0.38
UGAAAGCAAUAUUACGCCAC	-2.91 ± 1.1	
UCUAAGCAAUAUUACGGGGC	-4.42 ± 0.59	
CGAGAGCAAUAUUACGUCCA	-4.13 ± 1	
UCCAAGCAAUAUUACGCGCU	-2.67 ± 0.21	-1.52 ± 0.23
GGUAAGCAAUAUUACGGCCA		-1.67 ± 0.68
CGAUAGCAAUAUUACGAGAC		-3.33 ± 1
UUCUAGCAAUAUUACGCAGC	-3.92 ± 0.73	
AGAGAGCAAUAUUACGGAUC		-3.28 ± 1
GCAUAGCAAUAUUACGUCGA	-1.63 ± 0.15	-0.979 ± 0.15
AGUGAGCAAUAUUACGGCCA	-3.08 ± 0.79	-1.26 ± 0.75
GUCGAGCAAUAUUACGGGGG		-1.85 ± 0.61
CUCGAGCAAUAUUACGCUCU	-3.31 ± 1	-3.08 ± 1
UAGUAGCAAUAUUACGGAAU	-4.07 ± 0.61	
AGGGAGCAAUAUUACGCAAG	-3.7 ± 0.73	
AAGGAGCAAUAUUACGUAAG	-2.71 ± 0.8	-3 ± 0.63
CUGCAGCAAUAUUACGAUAC		-2.83 ± 0.53

Sequence	self-splicing fitness (ln) (30 °C)	self-splicing fitness (ln) (37 °C)
GGUCAGCAAUAUUACGCCCG	-3.28 ± 0.6	-0.687 ± 0.65
GCACAGCAAUAUUACGAUGC	-3.17 ± 0.2	-1.88 ± 0.17
ACCUAGCAAUAUUACGGCAA	-1.41 ± 0.17	0.02 ± 0.14
CUCGAGCAAUAUUACGUAUA	-3.81 ± 1	
CCCGAGCAAUAUUACGACGC		-3.02 ± 0.61
UAUAAGCAAUAUUACGAAAA	-1.72 ± 0.31	-1.27 ± 0.31
GCGUAGCAAUAUUACGUCUC	-3.35 ± 0.73	
AGAGAGCAAUAUUACGCCUC		-2.15 ± 0.79
UAAUAGCAAUAUUACGAAAC	-5.21 ± 1	-2.52 ± 1.1
UUGGAGCAAUAUUACGGCAU	-4.4 ± 0.51	
CCUUAGCAAUAUUACGCUCC	-3.64 ± 0.63	-1.44 ± 0.5
AUGGAGCAAUAUUACGAUCA	-3.31 ± 0.54	
UCCGAGCAAUAUUACGCCUC	-4.59 ± 0.72	
UCGGAGCAAUAUUACGUCUC	-3.75 ± 1	-1.13 ± 1.2
CUUGAGCAAUAUUACGUGGC	-4.95 ± 0.59	
AGGAAGCAAUAUUACGCCAG	-2.89 ± 0.18	-1.81 ± 0.22
CAGUAGCAAUAUUACGGUCC	-4.04 ± 1.1	-2.63 ± 0.76
UACUAGCAAUAUUACGCACU	-0.822 ± 0.068	0.229 ± 0.079
AUUCAGCAAUAUUACGCCCG		0.627 ± 0.59
GCAAAGCAAUAUUACGCUUG	-3.98 ± 0.18	-2.64 ± 0.18
UCCGAGCAAUAUUACGAAUC	-3.5 ± 1	-1.99 ± 0.66
GCCGAGCAAUAUUACGUUCG	-2.72 ± 0.26	-2 ± 0.34

Part of the list above, reformatted.

| Sequence | self-splicing fitness (ln) (30 °C) | self-splicing fitness (ln) (37 °C) |
| --- | --- | --- |
| UCGGAGCAAUAUUACGUGAA | -3.41 ± 0.39 | -1.63 ± 0.14 |
| AAUUAGCAAUAUUACGGGGC |  | -3.46 ± 0.59 |

Shown as a markdown table: part of the list above.

| Sequence | self-splicing fitness (ln) (30 °C) | self-splicing fitness (ln) (37 °C) |
| --- | --- | --- |
| GCAAAGCAAUAUUACGCUUG | -3.98 ± 0.18 | -2.64 ± 0.18 |
| UCCGAGCAAUAUUACGAAUC | -3.5 ± 1 | -1.99 ± 0.66 |
